The record followed here is patent US20030099984A1 (TEXAS A AND M UNIVERSITY SYSTEM, published 2003).

The experiment has as its target T1, His-S tagged RNase H-like protein produced in E. coli, Ni column purified (sugarcane).
T1 sequence: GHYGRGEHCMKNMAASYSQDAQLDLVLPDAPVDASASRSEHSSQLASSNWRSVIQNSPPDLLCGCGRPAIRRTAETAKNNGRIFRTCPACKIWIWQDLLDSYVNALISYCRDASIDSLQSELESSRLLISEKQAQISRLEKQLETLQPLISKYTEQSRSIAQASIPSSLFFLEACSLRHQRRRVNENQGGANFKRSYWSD
Briefly: farwestern blot (FIG. 14), labeled RNase H-like protein as probe.

No constants are given. Whether binding was seen depends on the method and setting. Some binding calls cover weakened binding; strength is not graded here. Where a sequence is shown, tags or fusion partners need not be part of it.

B1: 35S labeled RNase H-like protein transcription and translation (TNT) product (other)
chain: GHYGRGEHCMKNMAASYSQDAQLDLVLPDAPVDASASRSEHSSQLASSNWRSVIQNSPPDLLCGCGRPAIRRTAETAKNNGRIFRTCPACKIWIWQDLLDSYVNALISYCRDASIDSLQSELESSRLLISEKQAQISRLEKQLETLQPLISKYTEQSRSIAQASIPSSLFFLEACSLRHQRRRVNENQGGANFKRSYWSD
modifications: labeled with 35S Cysteine
notes: Made in rabbit reticulocyte lysate; used as probe in farwestern blots and as the labelled partner in the pull down
With B1, the binding result was “binds”.
